This assay deals with Streptococcus mutans biofilms. The conditions noted are these: individual samples 1-6, medium replaced after biofilm formation, further 24 hours. From the text:
FIGS. 3 to 6 show the experimental results in which Streptococcus mutans strains are actually used. Streptococcus mutans is a facultative anaerobe and a gram-positive streptococcus. It produces insoluble, sticky glucans that stick to tooth surfaces. It is one of the bacteria that mainly cause dental caries. THB (TODD-HEWITT BROTH) supplemented with 2% (w/v) sucrose was used as the medium. Sucrose is a sugar composed of the monosaccharides glucose and fructose with an α-1,2-glycosidic linkage and one of the disaccharides. THB manufactured by Becton, Dickinson and Company was used. For sucrose, “CASRN” manufactured by FUJIFILM Wako Pure Chemical Corporation was used. The plate used for culture was a Thermo Scientific Nunclon Delta Surface 96 well. The incubator used was a Panasonic multi-gas incubator MCO-5MUV-PJ. Culturing was conducted at 37° C. under an atmosphere of 5% CO2 gas, 5% O2 gas and 90% N2 gas.
Devices and the like used to measure residual biofilms are described below. For staining, 0.1% Crystal Violet from FUJIFILM Wako Pure Chemical Corporation was used. It was dissolved in distilled water to 0.1% (w/v).
Life Technologies EVOS XL Core was used as the microscope for photography. […] Co., Ltd. was used as the absorption spectrometer. The data processing software was “SF6” and the absorbance wavelength was 590 nm.
Streptococcus mutans was diluted in 2% sucrose-containing THB and 10 inoculated samples of 100 μL each were plated onto cell culture plates (Thermo Scientific Nunclon Delta Surface 96well). The samples were then cultured in a multi-gas incubator for 24 hours to allow biofilms to form on the bottom of each plate.
The media were removed and the plates were washed with distilled water 24 hours after the start of cultivation. […] The samples were further cultured in a multi-gas incubator for 24 hours. After culturing, the plates were washed with distilled water and stained with 0.1% Crystal Violet solution for 10 minutes. After staining, the plates were washed again with distilled water, dried and then observed and photographed using a bright field inverted microscope.

Several values for one entry are separate records, joined by “and”; a condition that tells them apart may be missing. Equal entries are not always repeated. Where two headings read alike, the source gives them in different places. Further values from the same series stand in other lists.

On to `[2H]OS(=O)(=O)O[2H]` [deuterated sulfuric acid (D2SO4)], for which the Absorbance is 1.108 and 1.005 and 0.982 (pH 2.0); 1.005 and 1.237 and 1.077 (pH 2.3); 1.111 and 1.078 and 1.010 (pH 2.7); 1.176 and 1.191 and 1.094 (pH 3.3); 1.134 and 1.094 and 1.102 (pH 3.7).

The values are drawn from patent publication US20250176553A1, “SOLUTION FOR […] AND METHOD OF PRODUCING THEREOF” (OCT, Inc., priority 2022, published 2025).
